Test results as given in article PMC7228087.
No constants are given. Whether binding was seen depends on the method and setting. In cells and extracts the contact can be indirect. Some binding calls cover weakened binding; strength is not graded here. For part of these data: Sequences can lack the tags named with a protein.

B1: Atp9 with the V68C and S69C mutations (protein, UniProt P61829 1-76)
chain: MQLVLAAKYIGAGISTIGLLGAGIGIAIVFAALINGVSRNPSIKDTVFPMAILGFALSEATGLFCLMCCFLLLFGV

Tests used:
[1] = target: Atp9 with the V68C and S69C mutations (S. cerevisiae) (UniProt P61829); experiment: cross-linking; radiolabelled Atco purified on protein C antibody beads from mss51 pet494 double mutant mitochondria, incubated with and without CuP; SDS-PAGE on a 15% gel with and without 1% beta-mercaptoethanol
[2] = target: Atp9 with the V68C and S69C mutations (S. cerevisiae) (UniProt P61829); experiment: cross-linking; Atp9 ring of the ATP synthase: submitochondrial particles treated with 1.5 mM CuP for 1 h; with or without 5% TCA before SDS sample buffer without beta-mercaptoethanol; SDS-PAGE on a 15% gel, Western blot
[3] = target: T1, Atp6 with a tandem hemagglutinin plus poly histidine tag (S. cerevisiae) (UniProt P00854); experiment: pull-down; Atp6-HApH held on Ni-NTA beads; 2% digitonin extracts of mitochondria pulse-labelled with 35S-methionine/cysteine for 5 or 10 min and chased for 0, 30 or 60 min; SDS-PAGE, BN-PAGE and 2D gels
T1 sequence: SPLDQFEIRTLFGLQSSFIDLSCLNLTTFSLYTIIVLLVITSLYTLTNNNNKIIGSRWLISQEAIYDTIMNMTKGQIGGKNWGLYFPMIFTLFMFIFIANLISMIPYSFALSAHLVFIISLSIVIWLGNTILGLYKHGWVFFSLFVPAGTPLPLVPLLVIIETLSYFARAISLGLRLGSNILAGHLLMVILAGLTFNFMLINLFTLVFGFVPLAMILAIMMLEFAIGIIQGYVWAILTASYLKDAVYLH

Binder	binding [1]	binding [2]	binding [3]
B1	binds	binds	
MPQLVPFYFMNQLTYGFLLMITLLILFSQFFLPMILRLYVSRLFISKL (peptide, UniProt P00856 1-48) [Atp8]			binds
